PubChem BioAssay AID602196 – INSERM – 2012

Test: 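Knock-downs that protect lung cancer cells from cisplatin or sensitise them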
Cell system: human A549 lung cancer cells
Reagent: siRNA pair against human genes
Time to read-out: 48 h transfection before cisplatin; time from cisplatin to read-out not stated
Conditions: cisplatin at a dose killing half of control-siRNA cells; exact dose and duration not given
Read-out: 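Shift in cisplatin death relative to control siRNA, from -50 (all cells die) to +50 (no cells die); siRNAs harmful on their own scored 0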
Direction: two-siRNA summed score (-2 to +2): higher = both siRNAs protect from cisplatin killing; -2 means both sensitise
Hit rule: 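Each siRNA scores 0 if harmful alone by LDH or WST-1, otherwise +1 if it reduces and -1 if it increases cisplatin killing; a gene is active when both siRNAs agree (sum +2 or -2)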
Meaning of the calls: active = both siRNAs shift cisplatin killing the same way; inactive = no consistent shift, or siRNA harmful alone
The deposit covers about 23,000 reagents; shown is an unselected part. 455 of them (2%) count as active. 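Active includes both protection and sensitisation; some change values fall well beyond the stated -50 to +50 range.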 Entries without a mark were called inactive. Not all columns of the deposit are shown. Not given: the amount of reagent.

target | PubChem SID | two-siRNA summed score (-2 to +2)
ATG16L1 (GeneID 55054) | SID131510026 | 0
HARBI1 (GeneID 283254) | SID131510489 | 0
CACNA1C (GeneID 775) | SID131509832 | 0
PROK2 (GeneID 60675) | SID131513431 | 0
LOC387764 | SID131520749 | 1
ZMYM2 (GeneID 7750) | SID131522096 | 1
MAP6 (GeneID 4135) | SID131521175 | 1
GHSR (GeneID 2693) | SID131503792 | 0
CCL13 (GeneID 6357) | SID131503268 | 0
GGTLC1 (GeneID 92086) | SID131508421 | 0
ADO (GeneID 84890) | SID131502283 | -1
SLC6A7 (GeneID 6534) | SID131503134 | 0
ZSCAN22 (GeneID 342945) | SID131504135 | 0
CHST1 (GeneID 8534) | SID131509556 | 0
SLC30A3 (GeneID 7781) | SID131502698 | -1
ADCY3 (GeneID 109) | SID131501370 | -1
SEC13 (GeneID 6396) | SID131519846 | 1
DEPDC5 (GeneID 9681) | SID131516468 | 0
RPS6KA2 (GeneID 6196) | SID131505502 | 0
LAMA3 (GeneID 3909) | SID131506449 | 0
LOC387761 | SID131513949 | 0
LOC442200 | SID131520492 | 1
LOC127309 | SID131515155 | 0
TDRD3 (GeneID 81550) | SID131508735 | 0
PIK3R2 (GeneID 5296) | SID131518577 | 0
CRTC3 (GeneID 64784) | SID131502194 | -1
DIDO1 (GeneID 11083) | SID131501473 | -1
DIDO1 (GeneID 11083) | SID131516650 | 0
PPFIBP2 (GeneID 8495) | SID131522144 | 1
NEDD9 (GeneID 4739) | SID131516117 | 0
CALML5 (GeneID 51806) | SID131506426 | 0
LOC388558 | SID131510290 | 0
PLAC1 (GeneID 10761) | SID131518535 | 0
CCDC69 (GeneID 26112) | SID131515166 | 0
LOC151273 | SID131508770 | 0
SNX15 (GeneID 29907) | SID131521721 | 1
MAD2L2 (GeneID 10459) | SID131503231 | 0
LOC441112 | SID131503909 | 0
ASB10 (GeneID 136371) | SID131503284 | 0

A stretch taken from the entries so far, for reference:
target | PubChem SID | two-siRNA summed score (-2 to +2)
GHSR (GeneID 2693) | SID131503792 | 0
CCL13 (GeneID 6357) | SID131503268 | 0
GGTLC1 (GeneID 92086) | SID131508421 | 0
ADO (GeneID 84890) | SID131502283 | -1
